Some of the results follow.
molecular target: T1, OsSMF1 (Oryza sativa, UniProt Q6ZLB0 1-436); test: protein-binding microarray (RPBM); PBS, 2% BSA, 51.3 ng/ul salmon testes DNA, 50 uM zinc acetate, 200 nM TF, 25 C, 1 h; high values mean tight binding; settings: protein: recombinant; tags: N-terminal polyhistidine and DsRed monomer fusion (pET32a); chain copies: 2; label: CyDye5-dUTP incorporated in the synthesized complementary strand; 3' TTTTT single-stranded linker to array surface; dsDNA, one strand shown
T1 sequence: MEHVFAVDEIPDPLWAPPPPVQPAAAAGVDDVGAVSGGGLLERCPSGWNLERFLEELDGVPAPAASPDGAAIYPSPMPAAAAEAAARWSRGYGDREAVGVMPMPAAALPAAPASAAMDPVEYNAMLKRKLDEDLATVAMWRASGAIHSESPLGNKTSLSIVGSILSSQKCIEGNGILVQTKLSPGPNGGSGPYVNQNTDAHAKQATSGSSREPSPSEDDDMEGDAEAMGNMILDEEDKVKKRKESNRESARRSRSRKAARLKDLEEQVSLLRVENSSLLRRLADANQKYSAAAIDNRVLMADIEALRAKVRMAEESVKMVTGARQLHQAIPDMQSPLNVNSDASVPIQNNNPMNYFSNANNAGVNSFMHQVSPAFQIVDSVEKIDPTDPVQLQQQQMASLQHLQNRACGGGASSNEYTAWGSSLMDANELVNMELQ
How it was run: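 The binding signal for each feature is its fluorescence intensity in arbitrary units. An Axon 4000B scanner was used to read a custom Agilent array that had been made double-stranded with Cy5-dUTP primer extension, blocked with 2% BSA, incubated at 25 °C for 1 h with 200 nM protein in PBS, 2% BSA, salmon testes DNA and 50 µM zinc acetate, and washed. The protein was an N-terminal polyhistidine–DsRed transcription factor fusion from E. coli BL21-CodonPlus, purified on Ni–NTA.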

| Sequence | binding signal |
| --- | --- |
| TAACTTTATATAAAGTTGTTAAGTAATATCACATTTCAAACGGAGTCACCTAGTGCAG | 28200 fluorescence intensity (a.u.) |
| CCAAAACTCACAAAGCTTTGCACGTCAAACATATTAGAAGCGGAGTCACCTAGTGCAG | 3540 fluorescence intensity (a.u.) |
| ATTTGTGGCCCGTTGTCCACGTTGCTGCCGAGTGTGAAAACGGAGTCACCTAGTGCAG | 3790 fluorescence intensity (a.u.) |
| GCCACACCAGCCACACCACGCTCGCACGCCGCCTCCGCCGCGGAGTCACCTAGTGCAG | 4290 fluorescence intensity (a.u.) |
| CTTTGTCTCACTGAGCGGTGGGCCCGGGCTGTCAGTGAGGCGGAGTCACCTAGTGCAG | 3540 fluorescence intensity (a.u.) |
| CTTGGTAGGCTAGTCCGCCGCGTCAACACGACGTAACGGACGGAGTCACCTAGTGCAG | 3490 fluorescence intensity (a.u.) |
| CTTTTATACGCGCCAGTCACGCCGCCGCTCGTCCCGTTTCCGGAGTCACCTAGTGCAG | 3460 fluorescence intensity (a.u.) |
| GATTTAGATGAATGTCGAGGTGGCGGCGACTTGATGGTAGCGGAGTCACCTAGTGCAG | 3600 fluorescence intensity (a.u.) |
| ACACTCCAGATTCCTCTTTGCAGGACACGTCTCCTCTGCCCGGAGTCACCTAGTGCAG | 5250 fluorescence intensity (a.u.) |
| GGCCCGAAACGCATACTCTGCCGGCGTACACATGTCACAGCGGAGTCACCTAGTGCAG | 4040 fluorescence intensity (a.u.) |
| CTCTATATCTACACACGTACGTGTGCTATAGCTAGCAGCTCGGAGTCACCTAGTGCAG | 3340 fluorescence intensity (a.u.) |
| CTCTTTCTCTCTACATATGAGACCCATGCTGACTAAGATTCGGAGTCACCTAGTGCAG | 10000 fluorescence intensity (a.u.) |
| GCCTCCATGCCGGACGCCAGGTCCGCCGCCGAGAATGCAACGGAGTCACCTAGTGCAG | 3200 fluorescence intensity (a.u.) |
| CACCGACCGCACAAGTTTCAGCTGTCACCATCTCTTGGGCCGGAGTCACCTAGTGCAG | 4230 fluorescence intensity (a.u.) |
| GGGATAAAGAGAGGATGACACGTGGGACCCACATGTCAGCCGGAGTCACCTAGTGCAG | 12400 fluorescence intensity (a.u.) |
| GGCGAGCGCGGCGGAGGAGCGGCGGCGGGCGAGCGCGGCGCGGAGTCACCTAGTGCAG | 8450 fluorescence intensity (a.u.) |
| CACCACCACCACGACGCCAACGTCAACGGCGAGGACCAAGCGGAGTCACCTAGTGCAG | 3270 fluorescence intensity (a.u.) |
| GTAGAGGTCCCAGCACCTGTCCGCCATGGCGTTCACCTTGCGGAGTCACCTAGTGCAG | 11700 fluorescence intensity (a.u.) |
| CCTGTATGGGTTGCCAACGGCGAAAACCCTGTCGCGGATCCGGAGTCACCTAGTGCAG | 3360 fluorescence intensity (a.u.) |
| AGAGAGAACAATACAAATGATGTGTCAATTACACATCCATCGGAGTCACCTAGTGCAG | 7190 fluorescence intensity (a.u.) |
| AGATGAGCGAAGTGTACCCAACCACGTCAGGTGAATCCATCGGAGTCACCTAGTGCAG | 8050 fluorescence intensity (a.u.) |

Pulled one by one from the list above, three records:

| Sequence | binding signal |
| --- | --- |
| GTAGAGGTCCCAGCACCTGTCCGCCATGGCGTTCACCTTGCGGAGTCACCTAGTGCAG | 11700 fluorescence intensity (a.u.) |
| CCTGTATGGGTTGCCAACGGCGAAAACCCTGTCGCGGATCCGGAGTCACCTAGTGCAG | 3360 fluorescence intensity (a.u.) |
| TAACTTTATATAAAGTTGTTAAGTAATATCACATTTCAAACGGAGTCACCTAGTGCAG | 28200 fluorescence intensity (a.u.) |

More records

| Sequence | binding signal |
| --- | --- |
| GGCTCCGTCAGGGTGATGTCGCCCCTTCGTCAATTTGTAACGGAGTCACCTAGTGCAG | 4500 fluorescence intensity (a.u.) |
| CTATGTTTTACACTTACACTCCTATCAAAATCCTACGTTTCGGAGTCACCTAGTGCAG | 22600 fluorescence intensity (a.u.) |
| GACTTGTCCAACAAAATGTCCAACTCGCCACGTATAAATACGGAGTCACCTAGTGCAG | 4500 fluorescence intensity (a.u.) |
| CGCCACATGCTTCTGCTCACGTAGTGTAGTGGCGGTGGAACGGAGTCACCTAGTGCAG | 3550 fluorescence intensity (a.u.) |
| CCGCCTCCGCCTCCGCCTCCACCCACCACCACCACCGCCGCGGAGTCACCTAGTGCAG | 3870 fluorescence intensity (a.u.) |
| GTTTCAAGAACACAATGATGAGCTGTACCATCATCAATTGCGGAGTCACCTAGTGCAG | 3180 fluorescence intensity (a.u.) |
| TGCAGCTTACGTGTTGGCCCATATTTGGTTATGTTCGGGCCGGAGTCACCTAGTGCAG | 6440 fluorescence intensity (a.u.) |
| TACATGCCCAGGTGCGGTACCCGTTGCCTGGTCAGGCTGGCGGAGTCACCTAGTGCAG | 4000 fluorescence intensity (a.u.) |
| GTTCCCGGCCACCGCGCACCGTATCGCCGCCGCCGCCGCGCGGAGTCACCTAGTGCAG | 22100 fluorescence intensity (a.u.) |
| GGCAGGCGGGACTGGGTTGGGCCGCGCGTCGCGTGGATGACGGAGTCACCTAGTGCAG | 4520 fluorescence intensity (a.u.) |
| TCGTTCTCCCGTGGCGAAACGATGGCGTGTGACATGCAGGCGGAGTCACCTAGTGCAG | 4450 fluorescence intensity (a.u.) |
| CCCCTCCACGTCGCTTGCAACTTTTACAAGAGGAAACCGGCGGAGTCACCTAGTGCAG | 3330 fluorescence intensity (a.u.) |
| TGTTCCACTGTTGTGTGTGTGGCATTCTTGTACTGCATTTCGGAGTCACCTAGTGCAG | 3360 fluorescence intensity (a.u.) |
| CTGCTGCGGTGGTGCCTGCGTGGCTGCGTCCCTTGTATCGCGGAGTCACCTAGTGCAG | 7830 fluorescence intensity (a.u.) |
| CAGCAGCCAGCTCAGCCAGCTAGCTTAGCTAGTCCGCGATCGGAGTCACCTAGTGCAG | 5750 fluorescence intensity (a.u.) |
| CCGGCATTTATTCCGGATCGAGAACCAATTTATTCATATTCGGAGTCACCTAGTGCAG | 20100 fluorescence intensity (a.u.) |
| CAAGCGCGTGCACACGTGTCCCCTTATCCACCCGGATGTCCGGAGTCACCTAGTGCAG | 8610 fluorescence intensity (a.u.) |
| TAAAAGCAAGCCACGCGGGCCGCGAGGCCGCAACGCCGGTCGGAGTCACCTAGTGCAG | 4020 fluorescence intensity (a.u.) |
| GGCTGCTCTAGTTGGGCCCGCACGCAGGCAAAACAATTGCCGGAGTCACCTAGTGCAG | 3210 fluorescence intensity (a.u.) |
| ATTGCCTCGTCCTCGTAGCGCCGTCAGCCGTGTTGCAGGCCGGAGTCACCTAGTGCAG | 4490 fluorescence intensity (a.u.) |
| CCCAAGAAACACCCGCAAGTCAAGTCTCGTCATGGGCCTTCGGAGTCACCTAGTGCAG | 4750 fluorescence intensity (a.u.) |

— publication PMC7819943, “Rice protein-binding microarrays: a tool to detect cis-acting elements near promoter regions in rice”
